The values that follow come from PubChem BioAssay AID687031 (Broad Institute, 2013).

The entries are a selection whose mix differs from that of the whole data set. Potency and affinity values are given separately. Activity calls are given as the source filed them.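 The calls were made as follows: active = fitted curve reaches 30% CPE protection at or below the top valid dose, with every test run called active; inconclusive = test runs disagree, some active and some not; inactive = every test run inactive, including effects in the wrong direction.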

The assay in a line: Dengue virus 2 cytopathic effect protection, dose response, BHK-21 cells, ATP luminescence, cherry-pick (AID 687031).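 Also: 0% = infected DMSO wells and 100% = uninfected cell wells.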 As to conditions: BHK-21 DENV2 CPE protection, 5 d; at 19.5 µM (top of the series). On the technique in general: Protection from cytopathic effect is a common read-out in antiviral testing.
For the molecule `CCCCCCCCc1ccc(O)cc1`, the CPE protection (higher = active) is inactive: 15.7%.
